Test results taken from patent publication US11633473B2 (priority 2017, dated 2023).
For at least one compound, name, drawing or mass did not settle the structure.

Key:
adult BMDCs = experiment: BMDC in vitro stimulation with PRR agonists/adjuvants, 20-24 h: cytokines by ELISA; format: cell-based, C57BL/6 mice; conditions: different concentrations, IL-12p70 only in adult BMDCs
Procedure: BMDCs were generated from newborn (5-7 days old) and adult (6-12 weeks old) C57BL/6 mice with an adaptation of previously described methods (Dowling et al., 2008, Lutz et al., 1999). Briefly, mice were sacrificed and legs removed; bones were surgically cleaned from surrounding tissue, extremities of tibiae and femurs were trimmed with sterile scissors and bone marrow flushed through a 70 μm nylon mesh strainer (Corning Life Sciences). Cell number and viability was determined by trypan blue exclusion. […] For flow cytometry analysis, BMDCs were stained (20 minutes at 4° C.) in PBS+FBS 2%+EDTA 2 mM, fixed with formaldehyde 4% (10 minutes at RT) and acquired on a BD LSRFortessa flow cytometer (BD Biosciences) or a Sony spectral analyzer SP6800 (Sony Biotechnology) and data were analyzed using FlowJo v.10 software (Tree Star). […]
(§1) Rough (Salmonella Minnesota, R595) and smooth (Escherichia coli, O55:B5) lipopolysaccharide (LPS) were purchased from List Biological Laboratories. […] Cells were incubated at 37° C. for 20-24 hours, then supernatant harvested and TNF, IL-6, IL-1β and IL-12p70 concentrations were measured by ELISA (R&D Systems). IFNβ was measured with a bioluminescent ELISA kit (LumiKine, Invivogen). Alternatively, BMDCs were stained and analyzed by flow cytometry as indicated above. […]

neonatal BMDCs = experiment: BMDC in vitro stimulation with PRR agonists/adjuvants, 20-24 h: cytokines by ELISA, maturation markers by flow cytometry; format: cell-based, C57BL/6 mice
Procedure: Briefly, mice were sacrificed and legs removed; bones were surgically cleaned from surrounding tissue, extremities of tibiae and femurs were trimmed with sterile scissors and bone marrow flushed through a 70 μm nylon mesh strainer (Corning Life Sciences). Cell number and viability was determined by trypan blue exclusion. […] Plates were incubated in humidified atmosphere at 37° C., 5% CO2 for 6 days, with one supplement of 10 ml of complete culture medium and rmGM-CSF on day 3. On Day 6, non-adherent and loosely adherent cells were harvested by washing the plate gently with culture medium. Adherent cells were discarded. For flow cytometry analysis, BMDCs were stained (20 minutes at 4° C.) in PBS+FBS 2%+EDTA 2 mM, fixed with formaldehyde 4% (10 minutes at RT) and acquired on a BD LSRFortessa flow cytometer (BD Biosciences) or a Sony spectral analyzer SP6800 (Sony Biotechnology) and data were analyzed using FlowJo v.10 software (Tree Star). […]
as §1, with “Invivogen).” for “Invivogen). Alternatively, BMDCs were stained and analyzed by flow cytometry as indicated above.”

CCOCc1nc2c(N)nc3ccccc3c2n1CC(C)(C)O [R848, Resiquimod, reference compound]
TNF and IL-12p70 production, R848 vs cGAMP (adult BMDCs): higher production of TNF and IL-12p70 | IL-12p70 production by neonatal BMDCs (neonatal BMDCs; most effective non-toxic concentration, 20-24 h): failed to produce IL-12p′70 | TNF production, R848 vs cGAMP (neonatal BMDCs; neonatal BMDCs, different concentrations): higher production of TNF
